Experimental data as given in article PMC8617770.
No constants are given. Whether binding was seen depends on the method and setting. In cells and extracts the contact can be indirect. Some entries that bind do so weakly or less than the wild type.

Amino acid sequences for entries named in this document (tags omitted).
UniProt Q99P99: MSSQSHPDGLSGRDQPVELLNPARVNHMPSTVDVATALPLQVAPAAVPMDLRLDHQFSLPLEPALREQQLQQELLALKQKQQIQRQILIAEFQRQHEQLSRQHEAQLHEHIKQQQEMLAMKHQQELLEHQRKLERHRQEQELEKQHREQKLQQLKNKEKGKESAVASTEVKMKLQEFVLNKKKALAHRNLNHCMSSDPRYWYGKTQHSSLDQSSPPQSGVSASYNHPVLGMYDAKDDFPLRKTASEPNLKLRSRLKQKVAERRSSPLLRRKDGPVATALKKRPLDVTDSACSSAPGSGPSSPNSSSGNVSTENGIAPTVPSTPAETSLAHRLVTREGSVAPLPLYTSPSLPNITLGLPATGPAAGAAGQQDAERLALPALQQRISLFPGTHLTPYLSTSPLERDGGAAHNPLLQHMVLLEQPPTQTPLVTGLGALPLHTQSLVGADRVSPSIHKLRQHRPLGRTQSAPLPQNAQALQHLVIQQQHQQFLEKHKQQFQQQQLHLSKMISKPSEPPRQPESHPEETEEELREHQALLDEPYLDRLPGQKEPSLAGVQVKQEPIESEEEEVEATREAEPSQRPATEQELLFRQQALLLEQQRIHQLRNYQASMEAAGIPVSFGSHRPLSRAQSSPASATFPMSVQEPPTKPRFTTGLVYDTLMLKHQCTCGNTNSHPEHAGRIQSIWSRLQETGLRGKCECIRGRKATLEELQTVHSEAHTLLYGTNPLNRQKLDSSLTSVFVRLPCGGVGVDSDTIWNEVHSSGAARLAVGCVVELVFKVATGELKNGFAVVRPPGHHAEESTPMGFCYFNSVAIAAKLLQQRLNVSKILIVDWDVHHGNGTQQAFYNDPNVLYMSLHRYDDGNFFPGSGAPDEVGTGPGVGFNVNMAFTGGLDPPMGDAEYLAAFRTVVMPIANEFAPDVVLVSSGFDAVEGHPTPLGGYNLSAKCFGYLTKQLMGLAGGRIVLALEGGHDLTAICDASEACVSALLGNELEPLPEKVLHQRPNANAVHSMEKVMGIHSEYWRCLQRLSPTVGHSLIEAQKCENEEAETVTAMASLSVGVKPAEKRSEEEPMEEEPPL
UniProt O89038: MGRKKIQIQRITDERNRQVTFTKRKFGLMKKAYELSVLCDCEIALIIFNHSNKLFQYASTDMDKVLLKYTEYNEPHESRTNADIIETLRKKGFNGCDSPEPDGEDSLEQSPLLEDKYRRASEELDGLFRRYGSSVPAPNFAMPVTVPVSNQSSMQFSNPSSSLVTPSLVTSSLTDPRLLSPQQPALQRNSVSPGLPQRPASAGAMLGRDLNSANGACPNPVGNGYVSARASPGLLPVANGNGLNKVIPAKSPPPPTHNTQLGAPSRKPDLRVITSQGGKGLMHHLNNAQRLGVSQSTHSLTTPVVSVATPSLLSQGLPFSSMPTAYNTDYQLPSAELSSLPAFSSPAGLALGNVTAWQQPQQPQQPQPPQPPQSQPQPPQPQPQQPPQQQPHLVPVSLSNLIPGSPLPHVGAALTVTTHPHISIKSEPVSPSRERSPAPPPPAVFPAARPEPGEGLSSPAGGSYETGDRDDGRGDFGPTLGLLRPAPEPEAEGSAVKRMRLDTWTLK

What was measured:
[1] = target: HDAC4 (rat (endogenous in soleus muscle)) (UniProt Q99P99); assay: condition: only control group (no hindlimb unloading); co-IP; lysate of soleus muscle of control rats (Con, no unloading); IP with rabbit polyclonal anti-HDAC4, blot for MEF2-D; same buffer; non-specific IgG as negative control
[2] = target: HDAC4 (rat (endogenous in soleus muscle)) (UniProt Q99P99); assay: co-IP; lysate of soleus muscle of rats after 24 h of hindlimb unloading (HU); IP with rabbit polyclonal anti-HDAC4 on coupling resin overnight at 4 °C, blot for MEF2-D; lysis buffer 0.025 M Tris, 0.15 M NaCl, 0.001 M EDTA, 1% NP-40, 5% glycerol, pH 7.4; non-specific IgG as negative control
[3] = target: HDAC4 (rat (endogenous in soleus muscle)) (UniProt Q99P99); assay: condition: only 24 h of hindlimb unloading with Tasquinimod treatment (10 mg/kg/day); co-IP; lysate of soleus muscle of rats after 24 h of hindlimb unloading with Tasquinimod treatment (HU + T, 10 mg/kg/day orally, 7 days before and during HU); IP with rabbit polyclonal anti-HDAC4, blot for MEF2-D; same buffer; non-specific IgG as negative control

binding [1]: no binding
binding [2]: binds
binding [3]: no binding
Substance: MEF2-D (from UniProt O89038 1-507)
